Values joined by “and” are separate entries in the source; they are usually repeats but may differ in a detail not shown here. Identical values can stand only once. Hit rate of the full screen: of about 220,000 compounds, about 770 (0.35%) were called active. This list was built around the results that the source calls inconclusive (neither active nor inactive); the mix of calls is not that of the screen. Rule as the data show it: active = binding response below about 49% or above about 150%; inconclusive = no clear call, values can overlap the other calls; inactive = in between.
biological target: Guanine nucleotide-binding protein G(o) subunit alpha (Homo sapiens) (UniProt P09471); test: RGS7-Galphao binding modulators, primary screen, biochemical, multiplexed bead flow cytometry (AID 1439); details: at 10 µM, actives lie on both sides;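 also: fluorescent Galphao held in activated GDP-AlF4 state binding bead-coupled RGS7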

Chains of the proteins cited; added tags and fusions are not shown.
UniProt P09471, whole entry, looked up: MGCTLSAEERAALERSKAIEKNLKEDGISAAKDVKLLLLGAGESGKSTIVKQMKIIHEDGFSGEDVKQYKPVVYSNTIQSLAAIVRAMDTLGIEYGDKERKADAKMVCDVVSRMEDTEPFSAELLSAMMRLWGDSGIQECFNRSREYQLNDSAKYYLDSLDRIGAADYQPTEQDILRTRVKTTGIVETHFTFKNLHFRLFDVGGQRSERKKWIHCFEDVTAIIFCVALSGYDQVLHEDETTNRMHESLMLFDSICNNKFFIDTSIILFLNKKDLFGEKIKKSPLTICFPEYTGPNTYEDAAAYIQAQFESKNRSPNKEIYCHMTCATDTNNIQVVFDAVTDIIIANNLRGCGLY

SMILES	binding response (% of control)
O=C(Nc1ccc2c(c1)OCCO2)c1cccnc1	inactive: 101%
O=C(CCc1ccccc1)N1CCN(c2ccccc2F)CC1	inconclusive: 106%
Cc1n(-c2ccccc2)c2ccc(Cl)cc2[n+]1CCO	inactive: 98.9%
Cc1c(C(=O)/C=C/N(C)C)nnn1-c1ccc(Cl)cc1Cl	inconclusive: 58.1%
CCC(=O)Nc1nc2ccc([N+](=O)[O-])cc2s1	inconclusive: 102%
CC(C)(C)NC(=O)CSc1nc2ccc(Nc3nc(N4CCOCC4)nc(N4CCOCC4)n3)cc2s1	inconclusive: 86%
COc1ccc2c(c1OC)C(=O)OC2Nc1nc2ccccc2s1 (configuration not stated)	inconclusive: 113%
COc1ccc(OCCNc2c([N+](=O)[O-])c(=O)oc3ccccc23)cc1	inconclusive: 124%
Cc1nc(-c2nc(C(=O)NNS(C)(=O)=O)cs2)cs1	inconclusive: 162%
Cc1ccc(-c2cc3c(nn2)-c2ccccc2C3=O)cc1	inconclusive: 98.4%
CCNc1ccc(C(=O)OCC(=O)NC(=O)NCC(C)C)cc1[N+](=O)[O-]	inconclusive: 78.9%
CC(=O)Nc1ccc(N2C(=O)c3ccc(C(=O)Nc4nnc(SCc5ccc(F)cc5)s4)cc3C2=O)cc1	inactive: 98.8%
Cc1ccc(NC(=O)CNc2ccccc2CN(C)C2CCCCC2)cc1	inconclusive: 116%
O=C1CC(N(O)c2ccccc2)C(=O)N1c1ccc(Cl)c(Cl)c1 (configuration not stated)	inconclusive: 108%
O=C(/C=C/c1ccco1)NCc1ccc(F)cc1	inactive: 100%
NC(=S)n1[nH]c(-c2ccc([N+](=O)[O-])cc2)c(N=Nc2ccccc2[N+](=O)[O-])c1=O	inactive: 105%
Cc1ccc(/C=N/NC(=O)CN2CCN(Cc3ccccc3)CC2)s1	inconclusive: 93.9%
O=C1CCCC(O)=C1N=Nc1c(Cl)cc(C(F)(F)F)cc1Cl	inconclusive: 90.1%
Cc1nn(-c2ccccc2)c(C)c1C(=O)NNC(=O)C(F)(F)F	inconclusive: 110%
CCOC(=O)c1c(O)cc(C)[nH]c1=O	inconclusive: 17.7% and inconclusive: 110%
CC(C)(C)c1csc(CS(=O)(=O)c2ccccn2)n1	inconclusive: 118%
COc1cc(C(=O)NCCN2C(=O)S/C(=C\c3ccc(F)cc3)C2=O)ccc1OCC(=O)N1CCOCC1	inconclusive: -117%
N#C/C(=C/c1ccc(N2CCCCC2)o1)C(=O)Nc1ccc2ccccc2c1	active: 192% [activator]

SMILES	binding response (% of control)
CSc1nn(-c2ccc(C(=O)OC(C(=O)NC(N)=O)C(C)C)cc2)c(=S)s1 (configuration not stated)	inconclusive: 111%
COc1ccc(/C=C/C(=O)NC(=S)Nc2ccc(N3CCN(C(C)=O)CC3)cc2)cc1	inconclusive: 94.9%
Cc1cc(C)cc(N=C2SC(CC(=O)Nc3ccccc3)C(=O)N2CCN2CCOCC2)c1 (configuration not stated)	inconclusive: 90.9%
Cc1ccc(CNC(=O)C(=O)Nc2nccs2)cc1	inactive: 96.8%
C=C(C)C(=O)Nc1cccc(C2=NOC3(C2)C[C@@H](C(N)=O)N(C(=O)[C@H]2CCC(=O)N2)C3)c1 (some centres not stated)	inconclusive: 113%
COc1cccc(NC(=O)Cn2c(CCC(=O)O)ccc2-c2ccc(C)cc2)c1	inactive: 96.7%
Cc1sc2ccccc2[n+]1CC(=O)O	inconclusive: 142%
O=C(O)/C=C/c1cn(Cc2ccccc2)nc1-c1cccs1	inconclusive: 90.3%
Cc1ccc(CNC(=O)Cn2cccc2C(=O)c2ccccc2)cc1	inactive: 119%
CCOC(=O)N1CCN(c2ncc(C(F)(F)F)cc2Cl)CC1	inconclusive: 99.5%
CN(C)c1cccc2c1c(NC(=O)c1ccc(F)cc1)nn2C	inconclusive: 120%
Clc1ccc(-n2cc(COCc3ccccc3)nn2)cc1	inactive: 99.4%
Cc1ccc(CSCCC(=O)NCCc2ccc(Cl)cc2)cc1	active: 212% [activator]
CCn1c(N)c(C(=O)NC)sc1=S	inactive: 126%
Cc1ccc(-c2cc(C(=O)Nc3c(C)n(C)n(-c4ccccc4)c3=O)no2)cc1	inconclusive: 105%
O=C(O)c1cccnc1Nc1ccc(Cl)cc1	inconclusive: 107%
COc1ccccc1NS(=O)(=O)c1ccc(NC(=O)c2ccncc2)cc1	inconclusive: 107%
O=C(NCc1ccccc1)c1onc(CSc2ccccc2)c1C(=O)NCC1CC1	inconclusive: 105%
CCc1cc(/C(Cc2ccccn2)=N\Nc2ccccc2)c(O)cc1O	inactive: 102%
COc1ccc(C(=O)n2c(C)c(CCO)c(=O)n2C)cc1	inconclusive: 101%
CNC(=S)/N=C(\Nc1ccc(C)cc1)c1ccccc1	inconclusive: 114%
CN1CCSc2ccc(C(=O)Nc3ccc(Cl)cc3)cc21	inconclusive: 113%
Cc1nc(C)c(C(=O)N/N=C/c2ccco2)s1	inconclusive: 93.3%

SMILES	binding response (% of control)
COc1ccccc1NC(=O)C12CCC(C)(C(=O)C1)C2(C)C (configuration not stated)	inconclusive: 98.5%
C/C=C/C=C\C(=O)Nc1cccc(C2=NOC3(C2)C[C@@H](C(N)=O)N(C(=O)/C(C)=C/C)C3)c1 (some centres not stated)	inconclusive: 85.9%
Cc1nc(-c2ccc(Cl)cc2)sc1C1(C)CC(c2cccc([N+](=O)[O-])c2)=NO1 (configuration not stated)	inconclusive: 106%
c1ccc(Nc2ncnc3[nH]ncc23)cc1	inconclusive: 94.4%
COc1ccccc1-n1c(SCC(=O)N2CCOCC2)nc2cccnc21	inconclusive: 99.7%
O=C(OCc1ccccc1)N1CCCC1/C=C/CN1CCOCC1 (configuration not stated)	inconclusive: 93.6%
NC(=S)NC1CC2C=CC1C2 (configuration not stated)	inconclusive: 78.5%
CN(C)C/C=C/C(O)(c1ccccc1)c1ccccc1	inconclusive: 101%
CCOC(=O)c1oc2nc(CC(C)C)c3c(c2c1N)CCCC3	inconclusive: 70.3%
O=C(CSc1ccc2nnc(-c3cccnc3)n2n1)NCc1ccco1	inactive: 97.2%
Cc1cc(=O)oc2cc(OCC(=O)OCC(=O)NCCc3ccccc3)ccc12	inactive: 102%
Oc1cccc(/C=N/Nc2nn3cnnc3c3ccccc23)c1	inconclusive: 82.8%
COC(=O)c1ccc(N=Cc2c(C(F)(F)F)[nH]n(C)c2=O)cc1	inconclusive: 88.6%
O=C(NCc1cccnc1)C(=O)NCC1OCCN1S(=O)(=O)c1ccccc1 (configuration not stated)	inactive: 102%
Cn1c(SCC(=O)NCCN2C(=O)CSC2=O)nnc1-c1ccccc1	active: 213% [activator]
O=C(Cc1nc2ccccc2[nH]1)c1ccc(Br)cc1	inconclusive: 91.6%
c1ccc2cc(OCCOCCOc3ccc4ccccc4c3)ccc2c1	inconclusive: 115%
O=C(CO/N=C/c1ccccc1O)N1CCc2ccccc21	inactive: 115%
CN(C)c1cccc2c1c(NC(=O)Nc1ccc(Cl)cc1Cl)nn2C	inconclusive: 115%
Nc1nnc(/C=C/c2ccccc2Cl)s1	inconclusive: 122%
CCN(CC)C(=O)CSc1nnc(CSc2ncccn2)n1C	inconclusive: 120%
COc1ccc(-c2cnn(-c3ccccc3)c2N)cc1OC	inactive: 101%
Cc1cc(C(=O)N2CCN(c3ncccn3)CC2)nn1C	inconclusive: 83.1%

SMILES	binding response (% of control)
O=C(CN1C(=O)c2ccccc2S1(=O)=O)c1ccc(O)c(O)c1	inconclusive: 93.8%
CCCNC(=O)c1ccc(CN2CCc3ccccc3C2)cc1	active: 21.8%
Cc1nc2ccccn2c1C(=O)CSc1ccccc1	inactive: 102%
O=c1oc2ccccc2c(NCc2ccc(Cl)cc2)c1[N+](=O)[O-]	inconclusive: 88.5%
Cc1[nH][nH]c(=O)c1N=Nc1ccccc1Cl	inconclusive: 100%
O=[N+]([O-])c1ccc(CSc2nc3ncc(Br)cc3[nH]2)cc1	inconclusive: 92.6%
N=c1ccn(Cc2c(Cl)cccc2Cl)cc1	inconclusive: 103%
COc1ccc(NC(=O)N2CCC(c3nc4ccccc4[nH]3)CC2)cc1	inactive: 89%
O=C(CN1CCOCC1)N/N=C/c1ccc(-c2ccc(C(=O)O)cc2)o1	inconclusive: 99.6%
C=CSc1sc(Cl)c(N(CC)CC)c1[N+](=O)[O-]	inconclusive: 86.5%
CS(=O)(=O)N(CC(=O)NCC1CCCO1)c1cc(Cl)c(Cl)cc1Cl (configuration not stated)	inactive: 103%
OC(CNC1Cc2ccccc2C1)COc1ccc(F)cc1 (configuration not stated)	inconclusive: 65.6%
N#C/C(=C\c1cccs1)C(=O)c1ccccc1Cl	inconclusive: 122%
COC(=O)C1C(c2ccccc2)C=CC(c2ccccc2)C1C(=O)O (configuration not stated)	inconclusive: 60.3%
CCOC(=O)C1CCN(C(=O)c2cccc(S(=O)(=O)Nc3ccc(C)cc3C)c2)CC1	inconclusive: 109%
Cc1ccc(CNC(=O)C2CC3Cn4c(nc5cc(C)c(C)cc54)C3N2C)o1 (configuration not stated)	inconclusive: 95.6%
O=C(Cn1cnc2ccccc2c1=O)Nc1nnc(SCc2ccc(Cl)cc2)s1	inconclusive: 127%
COC(=O)c1ccc(C23CC4(C2)[C@H](CN(Cc2ccc(C(F)(F)F)cc2)[C@@H]4c2ccccc2)C3c2ccccc2)cc1 (some centres not stated)	inconclusive: 106%
O=C(Nc1cc2cc([N+](=O)[O-])ccc2oc1=O)c1cccs1	inactive: 103%
COc1ccc(N2C(=O)c3ccccc3S2(=O)=O)cc1	inconclusive: 99.5%
Cc1cc(-c2ccccc2)nc2oc3c(c12)NC(=O)CN(c1ccccc1)C3=O	inconclusive: 95.7%
COc1ccc([C@@H]2C=C(C(=O)O)O[C@H](OCCCCO)C2)cc1	inconclusive: 110%
CCC(=O)Nc1ccc2nc(C3CC3)n(Cc3ccc(C(C)(C)C)cc3)c(=O)c2c1	inconclusive: 85.5%

Reference: PubChem BioAssay AID1439 (NMMLSC, 2008)
